Source: patent US20240002404A1, “SALT OF PYRROLOPYRIMIDINE COMPOUND, CRYSTALLINE FORM THEREOF, AND APPLICATION THEREOF” (GUANGZHOU JOYO PHARMATECH CO., LTD, priority 2020, published 2024)
Where a name gives a salt, the structure may show the parent alone. At least one compound was matched to its structure with a doubt left.

How the values were obtained:
Type in all cases: physicochemical
[1] = Solid state stability (HPLC purity after storage)
Method: The chemical stability of the samples was determined by HPLC after placing the crystal form B of the sulfate, the crystal form A of the maleate and the crystal form C of the hydrochloride at 25° C./60% RH and 40° C./75% RH for 1 week, respectively. For the maleate, additional stability data for one month and two months storage at 25° C./60% RH and 40° C./75% RH (open) were collected, and using the crystal form A of maleate as the starting sample, stability data for 24 hours storage at 60° C. (closed) were collected.

[2] = Hygroscopicity evaluation by DVS; details: 25° C./80% RH
Method: The hygroscopicity of the crystal form B of the sulfate, the crystal form A of the maleate and the crystal form C of the hydrochloride was evaluated by DVS. The water adsorption (second adsorption curve) of the three salt forms at 25° C./80% RH is 7.62%, 1.35% and 4.77% respectively.

[3] = Dynamic solubility evaluation in water and biological menstruums; details: solubility sample
Method: The dynamic solubility of the crystal form B of the sulfate, the crystal form A of the maleate and the crystal form C of the hydrochloride in water and three biological menstruums was evaluated.

Row | SMILES | Purity (area %) ([1]; 25° C./60% RH, 1 week) | Purity/Initial Purity (%) ([1]; 25° C./60% RH, 1 week) | Purity (area %) ([1]; 40° C./75% RH, 1 week) | Purity/Initial Purity (%) ([1]; 40° C./75% RH, 1 week) | Purity (area %) ([1]; Initial) | pH ([3]; FaSSIF, 1 hour) | pH ([3]; FaSSIF, 2 hours) | pH ([3]; FaSSIF, 4 hours) | pH ([3]; FaSSIF, 24 hours) | pH ([3]; FeSSIF, 1 hour) | pH ([3]; FeSSIF, 2 hours) | pH ([3]; FeSSIF, 4 hours) | pH ([3]; FeSSIF, 24 hours) | pH ([3]; H2O, 1 hour) | pH ([3]; H2O, 2 hours) | pH ([3]; H2O, 4 hours) | pH ([3]; H2O, 24 hours) | pH ([3]; SGF, 1 hour) | pH ([3]; SGF, 2 hours) | pH ([3]; SGF, 4 hours) | also measured
1 | CN(c1ncnc2[nH]ccc12)[C@@H]1CCc2cc(C#N)nn2C1 [Crystal form C of hydrochloride] | 98.99 area % | 99.96% | 98.95 area % | 99.92% | 99.03 area % | 2.7 | 2.6 | 2.6 | 2.6 | 4.6 | 4.6 | 4.6 | 4.7 | 2.0 | 2.1 | 2.0 | 1.9 | 1.8 | 1.8 | 1.8 | water adsorption (second adsorption curve) ([2]; listed as crystal form C of the hydrochloride): 4.77%; pH ([3]; SGF, 24 hours): 1.7
2 | CN(c1ncnc2[nH]ccc12)[C@@H]1CCc2cc(C#N)nn2C1 [Crystal form A of maleate] | 98.14 area % | 99.75% | 98.08 area % | 99.68% | 98.39 area % | 3.0 | 2.9 | 2.9 | 2.8 | 4.6 | 4.5 | 4.5 | 4.6 | 2.4 | 2.6 | 2.5 | 2.1 | 2.1 | 2.1 | 2.1 | Purity (area %) ([1]; 25° C./60% RH (open), 1 month): 98.31 area %; Purity/Initial Purity (%) ([1]; 25° C./60% RH (open), 1 month): 99.92%; Purity (area %) ([1]; 25° C./60% RH (open), 2 months): 98.78 area %; Purity/Initial Purity (%) ([1]; 25° C./60% RH (open), 2 months): 99.90%; Purity (area %) ([1]; 40° C./75% RH (open), 1 month): 98.33 area %; Purity/Initial Purity (%) ([1]; 40° C./75% RH (open), 1 month): 99.94%; Purity (area %) ([1]; 40° C./75% RH (open), 2 months): 98.84 area %; Purity/Initial Purity (%) ([1]; 40° C./75% RH (open), 2 months): 99.91%; Purity (area %) ([1]; 60° C./Closed, 24 hours): 98.66 area %; Purity/Initial Purity (%) ([1]; 60° C./Closed, 24 hours): 99.94%; Purity (area %) ([1]; Initial, starting sample of the 60° C./Closed test): 98.72 area %; water adsorption (second adsorption curve) ([2]; listed as crystal form A of the maleate): 1.35%; pH ([3]; SGF, 24 hours): 1.9
